Article doi:10.1101/2021.06.15.448540
Residue numbers refer to the chain shown, from its start. No constants are given. Whether binding was seen depends on the method and setting. Some binding calls cover weakened binding; strength is not graded here.

How the values were obtained:
Assay in all cases: MST
[1] = target: T1, FhuCB with FhuB D170 and Q171 mutated to Ala (Escherichia coli) (UniProt P07821+P06972)
T1 sequence (chain, His-tag labeled with the red-tris-NTA 2nd generation dye (in the MST)) 1: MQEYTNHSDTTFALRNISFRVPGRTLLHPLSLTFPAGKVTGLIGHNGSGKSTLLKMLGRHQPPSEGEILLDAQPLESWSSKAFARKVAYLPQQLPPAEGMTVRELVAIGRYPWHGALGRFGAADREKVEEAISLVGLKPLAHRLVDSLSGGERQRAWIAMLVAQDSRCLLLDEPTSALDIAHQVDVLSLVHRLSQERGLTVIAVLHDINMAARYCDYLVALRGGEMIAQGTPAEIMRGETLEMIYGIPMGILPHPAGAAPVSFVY
T1 sequence (chain, His-tag labeled with the red-tris-NTA 2nd generation dye (in the MST)) 2: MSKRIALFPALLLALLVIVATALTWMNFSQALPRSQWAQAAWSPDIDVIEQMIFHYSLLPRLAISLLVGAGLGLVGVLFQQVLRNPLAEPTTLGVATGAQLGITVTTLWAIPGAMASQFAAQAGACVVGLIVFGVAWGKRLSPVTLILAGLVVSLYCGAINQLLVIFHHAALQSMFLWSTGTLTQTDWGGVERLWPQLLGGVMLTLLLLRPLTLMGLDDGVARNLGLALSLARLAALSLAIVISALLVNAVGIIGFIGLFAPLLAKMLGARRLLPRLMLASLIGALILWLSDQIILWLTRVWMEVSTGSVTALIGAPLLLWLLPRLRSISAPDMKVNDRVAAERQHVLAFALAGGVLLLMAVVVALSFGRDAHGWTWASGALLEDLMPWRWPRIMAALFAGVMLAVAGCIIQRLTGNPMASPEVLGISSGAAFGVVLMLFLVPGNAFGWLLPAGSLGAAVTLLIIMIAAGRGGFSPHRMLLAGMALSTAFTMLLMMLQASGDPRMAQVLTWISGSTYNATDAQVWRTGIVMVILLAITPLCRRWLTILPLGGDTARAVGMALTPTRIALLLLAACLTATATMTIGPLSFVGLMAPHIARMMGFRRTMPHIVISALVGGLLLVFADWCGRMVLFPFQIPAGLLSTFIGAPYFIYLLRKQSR

[2] = target: T2, FhuCB with FhuB R390 mutated to Ala (Escherichia coli) (UniProt P07821+P06972)
T2 sequence (chain, His-tag labeled with the red-tris-NTA 2nd generation dye (in the MST)) 1: T1 sequence (chain, His-tag labeled with the red-tris-NTA 2nd generation dye (in the MST)) 1
T2 sequence (chain, His-tag labeled with the red-tris-NTA 2nd generation dye (in the MST)) 2: T1 sequence (chain, His-tag labeled with the red-tris-NTA 2nd generation dye (in the MST)) 2 with A170D, A171Q, R390A

[3] = target: T3, FhuCB with FhuB E304 mutated to Ala (Escherichia coli) (UniProt P07821+P06972)
T3 sequence (chain, His-tag labeled with the red-tris-NTA 2nd generation dye (in the MST)) 1: T1 sequence (chain, His-tag labeled with the red-tris-NTA 2nd generation dye (in the MST)) 1
T3 sequence (chain, His-tag labeled with the red-tris-NTA 2nd generation dye (in the MST)) 2: T1 sequence (chain, His-tag labeled with the red-tris-NTA 2nd generation dye (in the MST)) 2 with A170D, A171Q, E304A

Measured: binding

B1: FhuD (separately expressed periplasmic substrate-binding protein) (protein, UniProt P07822 31-296)
chain: AAIDPNRIVALEWLPVELLLALGIVPYGVADTINYRLWVSEPPLPDSVIDVGLRTEPNLELLTEMKPSFMVWSAGYGPSPEMLARIAPGRGFNFSDGKQPLAMARKSLTEMADLLNLQSAAETHLAQYEDFIRSMKPRFVKRGARPLLLTTLIDPRHMLVFGPNSLFQEILDEYGIPNAWQGETNFWGSTAVSIDRLAAYKDVDVLCFDHDNSKDMDALMATPLWQAMPFVRAGRFQRVPAVWFYGATLSAMHFVRVLDNAIGGKA
binds: [1] | [2] | [3]
